The assay has as its target T1, N-terminal Myc-tagged Tsa1 with a mutation in its resolving cysteine residue (Tsa1-C171S) (S. cerevisiae) (UniProt P34760).
T1 sequence: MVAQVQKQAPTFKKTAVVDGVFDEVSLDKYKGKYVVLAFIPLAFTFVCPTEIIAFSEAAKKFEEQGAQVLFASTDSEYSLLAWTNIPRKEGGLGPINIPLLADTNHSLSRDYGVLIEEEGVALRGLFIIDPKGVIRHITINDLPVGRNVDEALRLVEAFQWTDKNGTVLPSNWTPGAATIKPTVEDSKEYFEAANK
Description: affinity purification with mass spectrometry; Myc-Tsa1-C171S precipitated with anti-myc affinity beads from lysates of a tsa1 mutant, cells untreated or treated with hydrogen peroxide or AZC for 2 h; 4 h at 4 °C; washes in IPP50 buffer (10 mM Tris pH 8.0, 50 mM NaCl); vector-only control; hits in two of three repeats.

Results are given in words; binding and its absence hold for the method and conditions named. In cells and extracts the contact can be indirect. Here binding means that the protein was enriched with, or labelled near, the bait; the list need not be complete. Where a sequence is shown, tags or fusion partners need not be part of it.

B1: Ser3 (protein, UniProt P40054 1-469)
chain: MTSIDINNLQNTFQQAMNMSGSPGAVCTSPTQSFMNTVPQRLNAVKHPKILKPFSTGDMKILLLENVNQTAITIFEEQGYQVEFYKSSLPEEELIEKIKDVHAIGIRSKTRLTSNVLQHAKNLVCIGCFCIGTNQVDLDYATSRGIAVFNSPFSNSRSVAELVIAEIISLARQLGDRSIELHTGTWNKVAARCWEVRGKTLGIIGYGHIGSQLSVLAEAMGLHVLYYDIVTIMALGTARQVSTLDELLNKSDFVTLHVPATPETEKMLSAPQFAAMKDGAYVINASRGTVVDIPSLIQAVKANKIAGAALDVYPHEPAKNGEGSFNDELNSWTSELVSLPNIILTPHIGGSTEEAQSSIGIEVATALSKYINEGNSVGSVNFPEVALKSLSYDQENTVRVLYIHQNVPGVLKTVNDILSNHNIEKQFSDSNGEIAYLMADISSVDQSDIKDIYEQLNQTSAKISIRLLY
With B1, the binding result is on record as “binds”.

B2: Bcy1, the regulatory subunit of PKA (protein, UniProt P07278 1-416)
chain: MVSSLPKESQAELQLFQNEINAANPSDFLQFSANYFNKRLEQQRAFLKAREPEFKAKNIVLFPEPEESFSRPQSAQSQSRSRSSVMFKSPFVNEDPHSNVFKSGFNLDPHEQDTHQQAQEEQQHTREKTSTPPLPMHFNAQRRTSVSGETLQPNNFDDWTPDHYKEKSEQQLQRLEKSIRNNFLFNKLDSDSKRLVINCLEEKSVPKGATIIKQGDQGDYFYVVEKGTVDFYVNDNKVNSSGPGSSFGELALMYNSPRAATVVATSDCLLWALDRLTFRKILLGSSFKKRLMYDDLLKSMPVLKSLTTYDRAKLADALDTKIYQPGETIIREGDQGENFYLIEYGAVDVSKKGQGVINKLKDHDYFGEVALLNDLPRQATVTATKRTKVATLGKSGFQRLLGPAVDVLKLNDPTRH
Turning to B2, the binding entry was “binds”.
